# Results deposited as PubChem BioAssay AID1224828 (NIAID, 2016)
# Screen: 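Regulators linking TLR4 signalling to p65 nuclear translocation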 (primary screen)
# System: mouse RAW264.7 G9 macrophage reporter cells (GFP-p65, Tnf promoter-mCherry)
# Reagents: siRNA pool against mouse genes, 100 nM
# Time to read-out: 2 days siRNA transfection, then 40 min LPS before fixation
# Treatment: LPS (Salmonella minnesota R595) at 10 ng/ml
# Read-out: 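Imaged p65 nuclear translocation ratio, normalised to the plate median, converted to robust z-scores and averaged across two replicates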
# Scale: p65 translocation robust z-score: higher = more nuclear NF-kappaB p65 after LPS than the plate median; nuclear/cytoplasmic p65 ratio: higher = more nuclear NF-kappaB p65
# Rule for the call: 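Active if robust z is above 3.3 (negative regulators) or below -1.56, the Tlr4 control median (positive regulators); activity score 50 or more; control wells not called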
# Calls: active = hit (p65 shift raised or lowered); inactive = no clear change
# Shown is one part, drawn at random, of about 17,000 reagents. 762 of them (4.5%) were called active. 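Active calls include both raised and lowered p65 entry, mostly lowered; wells with fewer than 50 cells lack a z-score.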 Raw values vary from plate to plate and are shown uncorrected. Unmarked entries are inactive. Reagents against one gene are numbered here.
gene,reagent,p65 translocation robust z-score,"nuclear/cytoplasmic p65 ratio, rep 1","nuclear/cytoplasmic p65 ratio, rep 2",low cell count flag
Sult2b1 (GeneID 54200),1,1.36,1.58,1.4,enough cells to score
Lefty1 (GeneID 13590),1,0.06,1.55,1.51,enough cells to score
Chek1 (GeneID 12649),1,0.28,1.67,1.47,enough cells to score
Nat9 (GeneID 66176),1,1.09,1.66,1.59,enough cells to score
Vwa3b (GeneID 70853),1,-1.18,1.22,1.36,enough cells to score
Ccnd1 (GeneID 12443),1,-0.09,1.45,1.37,enough cells to score
Myl12a (GeneID 67268),1,-1.95 (active),1.04,1.03,enough cells to score
Aldh16a1 (GeneID 69748),1,,1.57,1.3,fewer than 50 cells per well; well left out of scoring
Tmem252 (GeneID 226040),1,,1.46,1.44,fewer than 50 cells per well; well left out of scoring
Slc29a3 (GeneID 71279),1,,0,1.21,fewer than 50 cells per well; well left out of scoring
Tafa5 (GeneID 106014),1,0.67,1.84,1.47,enough cells to score
Gdap1l1 (GeneID 228858),1,0.68,1.69,1.56,enough cells to score
Kazn (GeneID 71529),1,0.87,1.59,1.62,enough cells to score
Or4z4 (GeneID 258674),1,0.14,1.59,1.48,enough cells to score
Gbx1 (GeneID 231044),1,-1.41,1.37,1.24,enough cells to score
Naaa (GeneID 67111),1,-0.06,1.61,1.48,enough cells to score
Nav1 (GeneID 215690),1,-1.97 (active),1.47,1.29,enough cells to score
Reln (GeneID 19699),1,0.34,1.57,1.56,enough cells to score
Mars2 (GeneID 212679),1,1.29,1.77,2,enough cells to score
Dpp6 (GeneID 13483),1,-1.54,1.4,1.04,enough cells to score
Dpp6 (GeneID 13483),2,0.27,1.62,1.52,enough cells to score
Or7g30 (GeneID 258520),1,-0.07,1.43,1.36,enough cells to score
Vps33a (GeneID 77573),1,-0.55,1.32,1.16,enough cells to score
Gdpd1 (GeneID 66569),1,0.06,1.39,1.48,enough cells to score
Acp3 (GeneID 56318),1,-0.29,1.59,1.56,enough cells to score
Rps10 (GeneID 67097),1,,1.21,1.08,fewer than 50 cells per well; well left out of scoring
Raet1c (GeneID 19370),1,0.42,1.44,1.26,enough cells to score
Ceacam2 (GeneID 26367),1,2.09,1.75,2.29,enough cells to score
B130040O20Rik (GeneID 320962),1,0.39,1.56,1.67,enough cells to score
Trim27 (GeneID 19720),1,0.83,1.78,1.52,enough cells to score
Tnni3k (GeneID 435766),1,0.9,1.84,1.54,enough cells to score
Gnat2 (GeneID 14686),1,0.14,1.52,1.61,enough cells to score
Defa5 (GeneID 13239),1,-0.12,1.56,1.52,enough cells to score
Plcb1 (GeneID 18795),1,0.18,1.43,1.24,enough cells to score
Prss39 (GeneID 21755),1,-1.3,1.22,1.03,enough cells to score
Garin5b (GeneID 243822),1,,1.12,1.35,fewer than 50 cells per well; well left out of scoring
Sucnr1 (GeneID 84112),1,-0.75,1.38,1.49,enough cells to score
Xpr1 (GeneID 19775),1,3.45 (active),2.65,1.42,enough cells to score
Ccdc174 (GeneID 232236),1,1.52,1.63,1.74,enough cells to score
Pcdha1 (GeneID 116731),1,0.65,1.56,1.29,enough cells to score

Records listed above called active:
gene,reagent,p65 translocation robust z-score,"nuclear/cytoplasmic p65 ratio, rep 1","nuclear/cytoplasmic p65 ratio, rep 2",low cell count flag
Myl12a (GeneID 67268),1,-1.95 (active),1.04,1.03,enough cells to score
Nav1 (GeneID 215690),1,-1.97 (active),1.47,1.29,enough cells to score
Xpr1 (GeneID 19775),1,3.45 (active),2.65,1.42,enough cells to score
